# From US20090012038A1, “Methods for microbial biofilm destruction and interference with microbial cellular physiology” (priority 2004, published 2009)
# For at least one compound, name, drawing or mass did not settle the structure.
# Tested on: S. oneidensis strain AS129 biofilm cells (IPTG inducible gfp)
# Test: Transcription test in biofilm cells: IPTG-inducible gfp, GFP fluorescence by CLSM
# Format: cell-based, Shewanella oneidensis
# Conditions: biofilms treated with 10 μg/ml rifampicin; after 1 hour
# Procedure: In order to assure that rifampicin indeed inhibited transcription in biofilm cells under those conditions, we designed an experiment to test transcription in biofilm cells. Tester cells were S. oneidensis cells tagged with an IPTG inducible gfp under control of Pt, which is repressed by LacIQ. […] Upon addition of 10 mM ITPG to the flow-through-medium, the induction of GFP in biofilm cells was readily observed by CLSM throughout the entire biofilm and quantified. This assay is very sensitive, and after 1 hour, about 20% of the maximal inducible GFP fluorescence was observed.
smiles,measurement,value
CO[C@H]1/C=C/O[C@@]2(C)Oc3c(C)c(O)c4c(O)c(c(/C=N/N5CCN(C)CC5)c(O)c4c3C2=O)NC(=O)/C(C)=C\C=C\[C@H](C)[C@H](O)[C@@H](C)[C@@H](O)[C@@H](C)[C@H](OC(C)=O)[C@@H]1C [rifampicin],GFP fluorescence in biofilm cells,did not yield any measurable fluorescence
